# Values of other authors in US20010018051A1, “Inhibition of allograft and concordant xenograft rejection” (priority 1990, published 2001).
# At least one compound was matched to its structure with a doubt left.
# System: rabbit kidney xenografts
# Details: in vivo; cited from earlier work
compound,measurement,value
COC(=O)C1=C(C)NC(C)=C(C(=O)OC)C1c1ccccc1[N+](=O)[O-] [nifedipine],prevention of hyperacute rejection,not prevented
